# From US20170145058 (published 2017)
# Assay: peptide synthesis
# Conditions: for final LC-MS purity: LC/MS (Method 3)
# [1] = late stage modification step, run 1
# [2] = late stage modification step, run 2
substance,measurement,setting,value
"4-{4-[(6R,9S 12S,15S,18S,21R)-21-{[({[(Aminoacetyl)amino]acetyl}amino)acetyl]amino}-6-{[(25)-2-({(2S)-6-amino-1-[(2-amino-2-oxoethyl)amino]-1-oxohexan-2-yl}carbamoyl)pyrrolidin-1-yl]carbonyl}-9-(2-amino-2-oxoethyl)-12-(3-amino-3-oxopropyl)-15-benzyl-18-(4-hydroxybenzyl)-8,11,14,17,20-pentaoxo-1,4-dithia-7,10,13,16,19-pentaazacyclodocosan-2-yl]butyl}-4-methylmorpholin-4-ium trifluoroacetate",final LC-MS purity,[1],65%
same,final LC-MS purity,[2],87%
same,step yield,[1],4% of theory
same,step yield,[2],8% of theory
"5-[(6R,9S,12S,15S,18S,21R)-21-{[({[(Aminoacetyl)amino]acetyl}amino)acetyl]amino}-6-{[(2S)-2-({(2S)-6-amino-1-[(2-amino-2-oxoethyl)amino]-1-oxohexan-2-yl}carbamoyl)pyrrolidin-1-yl]carbonyl}-9-(2-amino-2-oxoethyl)-12-(3-amino-3-oxopropyl)-15-benzyl-18-(4-hydroxybenzyl)-8,11,14,17,20-pentaoxo-1,4-dithia-7,10,13,16,19-pentaazacyclodocosan-2-yl]pentanoic acid",step yield,late stage modification step,2.6% of theory
"(2S)-1-{[(3R,6S,9S,12S,15S,18R,22aS,23R,23aR)-18-{[({[(Aminoacetyl)amino]acetyl}amino)acetyl]amino}-6-(2-amino-2-oxoethyl)-9-(3-amino-3-oxopropyl)-12-benzyl-15-(4-hydroxybenzyl)-23-(hydroxymethyl)-5,8,11,14,17-pentaoxohexacosahydro-20aH-cyclopropa[5, 6]cycloocta[1,2-b][1,4,7,10,13,16,19]dithiapentaazacyclodocosin-3-yl]carbonyl}-N-{(2S)-6-amino-1-[(2-amino-2-oxoethyl)amino]-1-oxohexan-2-yl}pyrrolidine-2-carboxamide",step yield,late stage modification step,7.5% of theory
same,final LC-MS purity,late stage modification step,65%
"(2S)-1-{[(6R,9S,12S,15S,18S,21R)-21-{[({[(Aminoacetyl)amino]acetyl}amino)acetyl]amino}-9-(2-amino-2-oxoethyl)-12-(3-amino-3-oxopropyl)-15-benzyl-18-(4-hydroxybenzyl)-8,11,14,17,20-pentaoxo-2-(27-oxo-2,5,8,11,14,17,20,23-octaoxa-26-azatriacontan-30-yl)-1,4-dithia-7,10,13,16,19-pentaazacyclodocosan-6-yl]carbonyl}-N-{(2S)-6-amino-1-[(2-amino-2-oxoethyl)amino]-1-oxohexan-2-yl}pyrrolidine-2-carboxamide",final LC-MS purity,conjugation step,99%
same,conjugation yield,"conjugation step, run 1",23% of theory
same,conjugation yield,"conjugation step, run 2",7% of theory
"(6R,9S,12S,15S,18S,21R)-21-Amino-9-(2-amino-2-oxoethyl)-12-(3-amino-3-oxopropyl)-15-benzyl-2-(4-carboxybutyl)-18-(4-hydroxybenzyl)-8,11,14,17,20-pentaoxo-1,4-dithia-7,10,13,16,19-pentaazacyclodocosane-6-carboxylic acid",step yield,[1],8% of theory
same,step yield,[2],4% of theory
"terlipressin + N-Boc-L-propargylglycine, Fraction 1",step yield,late stage modification step,4% of theory
"terlipressin + N-Boc-L-propargylglycine, Fraction 2",step yield,late stage modification step,15% of theory
same,final LC-MS purity,late stage modification step,94%
"terlipressin + N-Boc-L-propargylglycine, Fraction 3",step yield,late stage modification step,3% of theory
same,final LC-MS purity,late stage modification step,89%
